Assay results published in US8350064B2, “Fluorescent xanthenes and white light fluorophores” (Board of Supervisors of Louisiana State University And …, priority 2006, dated 2013).

Test system: HEp2 cells
Test: Cellular imaging of live cells (uptake and localization)
Format: cell-based
Details: fluorescence imaging
Description: There was a strong signal from the endoplasmic reticulum, and a smaller signal from mitochondria. […] No obvious staining of the plasma membrane was seen. However, since the plasma membrane has a large surface area, a relatively low surface signal might not have been detected. Three different filter sets, DAPI, FITC, and Texas Red, were used to select for wavelengths corresponding to the blue, green, and red emissions of SNAFR-2, respectively. […] However, autofluorescence was minimal with the longer wavelength filter sets, FITC and Texas Red.

SMILES	subcellular localization
O=c1ccc2c(-c3ccccc3)c3ccc4cc(O)ccc4c3oc-2c1 [SNAFR-2]	appeared to localize in lipophilic compartments
O=c1ccc2c(-c3ccccc3)c3cc4ccc(O)cc4cc3oc-2c1 [SNAFR-6]	most of the compound's signal co-localized with the endoplasmic reticulum (ER)
